The results in this text go back to article PMC7562919.

Assay [1] addresses TN2-FLAGTEVZZ (Arabidopsis thaliana). The assay is described as follows: co-IP; FLAGTEVZZ-tagged bait co-expressed with a FLAG-tagged partner in N. benthamiana leaves, 48 h; how the bait was precipitated is not told.
Assay [2] concerns the target HA-FLAG-SOC3 (Arabidopsis thaliana) (UniProt F4I901). Kind of assay: co-IP; proteins transiently co-expressed in N. benthamiana leaves, harvested after 48 h; GTEN buffer (25 mM Tris-HCl pH 7.5, 150 mM NaCl, 1 mM EDTA, 0.15% NP-40, 10 mM DTT); FLAG-tagged protein precipitated with anti-FLAG M2 beads, 3 h at 4 °C; western blot.

Results are given in words; binding and its absence hold for the method and conditions named. In cells and extracts the contact can be indirect. Binding calls can cover weak binding; strength is not graded here. Where a sequence is shown, tags or fusion partners need not be part of it.

B1: DN-SUSA2-FLAG (protein, UniProt Q9FKT0)
chain: MILKKVWGSVWNRSNSGKDLVNHQRAIDVPPLLLSSSSSLQCSQEPWDSIFFAETSLRSGYPLRMISSQSGELSFMHIYSQRAQVPGSIIIDGGSGYCKFGWSKYASPSGRSATFLEFGNIESPIYARLQQFFATIFTRMQVKPSMQPIVVSLPLCHFDDTESAKASRRQLKTAIFNVLFDMNVPAVCAVNQAVLALYAARRTSGIVVNIGFQVITILPILHGKVMRQVGVEVIGFGALKLTGFLKEKMQENNISFQSLYTVRTLKEKLCYVALDYKAELSKDTQASVEVSGEGWFTLSKERFQTGEILFQPRLAGMRAMSLHQAVSLCMDHCDAAGLTGDDSWFKTVVLTGGSACLPGLSERLERELQDHLPSSISNGIRVIPPPYGVDTSWHGAKLISNLSIFPGPWCITRKQFRRKSRLMW
Consider B1, for which, in assay [1], the binding entry is on record as “binds”.

B2: DN-SUSA2-Turbo-HA (protein, UniProt Q9FKT0)
chain: MILKKVWGSVWNRSNSGKDLVNHQRAIDVPPLLLSSSSSLQCSQEPWDSIFFAETSLRSGYPLRMISSQSGELSFMHIYSQRAQVPGSIIIDGGSGYCKFGWSKYASPSGRSATFLEFGNIESPIYARLQQFFATIFTRMQVKPSMQPIVVSLPLCHFDDTESAKASRRQLKTAIFNVLFDMNVPAVCAVNQAVLALYAARRTSGIVVNIGFQVITILPILHGKVMRQVGVEVIGFGALKLTGFLKEKMQENNISFQSLYTVRTLKEKLCYVALDYKAELSKDTQASVEVSGEGWFTLSKERFQTGEILFQPRLAGMRAMSLHQAVSLCMDHCDAAGLTGDDSWFKTVVLTGGSACLPGLSERLERELQDHLPSSISNGIRVIPPPYGVDTSWHGAKLISNLSIFPGPWCITRKQFRRKSRLMW
With B2, the binding result in assay [2] was “binds”.
